Measurements as given in publication PMC12979246.
These are yes or no findings as the source states them, for the method shown. Some binding calls cover weakened binding; strength is not graded here. Tags and fused reporters may be left off the sequences shown.

Amino acid sequences for entries named in this document (tags omitted).
UniProt P67775: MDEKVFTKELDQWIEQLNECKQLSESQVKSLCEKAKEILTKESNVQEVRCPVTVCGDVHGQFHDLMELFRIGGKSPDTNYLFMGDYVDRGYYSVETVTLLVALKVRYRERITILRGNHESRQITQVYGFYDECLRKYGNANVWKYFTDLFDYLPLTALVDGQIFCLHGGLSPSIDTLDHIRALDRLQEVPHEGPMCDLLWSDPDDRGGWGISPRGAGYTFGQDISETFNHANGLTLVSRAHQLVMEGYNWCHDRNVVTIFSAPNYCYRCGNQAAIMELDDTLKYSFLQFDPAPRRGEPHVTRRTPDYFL

Target: Flag-PPP2CA (human) (UniProt P67775)
Test: co-purification (affinity, gel filtration, ion exchange); Flag-PPP2CA, His-PPP2R1A and HA-PPP2R3A co-expressed in Sf9; lysate on M2 anti-Flag agarose 2 h at 4°C, Flag peptide elution, Superdex 200 26/60 in 20 mM Tris-HCl pH 8.0, 100 mM KCl, 10% glycerol, then Mono Q with a KCl gradient; silver stain

B1: HA-PPP2R3A (protein, UniProt Q06190 1-1150)
chain: MAATYRLVVSTVNHYSSVVIDRRFEQAIHYCTGTCHTFTHGIDCIVVHHSVCADLLHIPVSQFKDADLNSMFLPHENGLSSAEGDYPQQAFTGIPRVKRGSTFQNTYNLKDIAGEAISFASGKIKEFSFEKLKNSNHAAYRKGRKVKSDSFNRRSVDLDLLCGHYNNDGNAPSFGLLRSSSVEEKPLSHRNSLDTNLTSMFLQNFSEEDLVTQILEKHKIDNFSSGTDIKMCLDILLKCSEDLKKCTDIIKQCIKKKSGSSISEGSGNDTISSSETVYMNVMTRLASYLKKLPFEFMQSGNNEALDLTELISNMPSLQLTPFSPVFGTEQPPKYEDVVQLSASDSGRFQTIELQNDKPNSRKMDTVQSIPNNSTNSLYNLEVNDPRTLKAVQVQSQSLTMNPLENVSSDDLMETLYIEEESDGKKALDKGQKTENGPSHELLKVNEHRAEFPEHATHLKKCPTPMQNEIGKIFEKSFVNLPKEDCKSKVSKFEEGDQRDFTNSSSQEEIDKLLMDLESFSQKMETSLREPLAKGKNSNFLNSHSQLTGQTLVDLEPKSKVSSPIEKVSPSCLTRIIETNGHKIEEEDRALLLRILESIEDFAQELVECKSSRGSLSQEKEMMQILQETLTTSSQANLSVCRSPVGDKAKDTTSAVLIQQTPEVIKIQNKPEKKPGTPLPPPATSPSSPRPLSPVPHVNNVVNAPLSINIPRFYFPEGLPDTCSNHEQTLSRIETAFMDIEEQKADIYEMGKIAKVCGCPLYWKAPMFRAAGGEKTGFVTAQSFIAMWRKLLNNHHDDASKFICLLAKPNCSSLEQEDFIPLLQDVVDTHPGLTFLKDAPEFHSRYITTVIQRIFYTVNRSWSGKITSTEIRKSNFLQTLALLEEEEDINQITDYFSYEHFYVIYCKFWELDTDHDLYISQADLSRYNDQASSSRIIERIFSGAVTRGKTIQKEGRMSYADFVWFLISEEDKRNPTSIEYWFRCMDVDGDGVLSMYELEYFYEEQCERMEAMGIEPLPFHDLLCQMLDLVKPAVDGKITLRDLKRCRMAHIFYDTFFNLEKYLDHEQRDPFAVQKDVENDGPEPSDWDRFAAEEYETLVAEESAQAQFQEGFEDYETDEPASPSEFGNKSNKILSASLPEKCGKLQSVDEE
  binding: binds
